Values quoted from earlier work as cited in patent US20240269303A1, “CELL TARGETING CONSTRUCTS AND USES THEREOF” (Research Development Foundation, priority 2022, published 2024).
For at least one compound, name, drawing or mass did not settle the structure. Square brackets hold non-standard residues; d marks the D form. Peptide text beside a SMILES is read from it. * marks the point of attachment. Dolaproine = CO[C@@H]([C@@H]1CCCN1)[C@@H](C)C(=O)O; Dil = CC[C@H](C)[C@H](NC)[C@@H](CC(=O)O)OC; X1 = C[C@@H](N*)[C@@H](O)c1ccccc1; NMeV = CN[C@H](C(=O)O)C(C)C

Settings: cited from earlier work

CC[C@H](C)[C@@H]([C@@H](CC(=O)N1CCC[C@H]1[C@H](OC)[C@@H](C)C(=O)N[C@H](C)[C@@H](O)c1ccccc1)OC)N(C)C(=O)[C@@H](NC(=O)[C@@H](NC)C(C)C)C(C)C [free MMAE, Monomethyl auristatin E] (H-[NMeV]V[Dil][Dolaproine]-X1)
potency relative to doxorubicin: 100-1000 times
